# Experimental data taken from the M2OR odorant receptor database.
# Chains of the proteins cited; added tags and fusions are not shown. Lines headed by an entry give the natural chain unless they say otherwise; changes in a name come on top.
# UniProt Q96RD3: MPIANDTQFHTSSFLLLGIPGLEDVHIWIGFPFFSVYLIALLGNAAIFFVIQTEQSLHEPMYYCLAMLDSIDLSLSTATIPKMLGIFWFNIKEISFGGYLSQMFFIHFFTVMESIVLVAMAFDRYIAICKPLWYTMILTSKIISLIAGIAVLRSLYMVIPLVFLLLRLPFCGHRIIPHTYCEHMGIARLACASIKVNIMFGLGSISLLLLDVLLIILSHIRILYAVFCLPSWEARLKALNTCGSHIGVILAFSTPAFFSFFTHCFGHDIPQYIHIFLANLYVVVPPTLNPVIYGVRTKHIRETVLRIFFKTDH
# The list shows a part of the results, in another mix than the full data. The calls were merged from several studies; some rest on single wells. The list shows a part of the results. Some of the results follow.
# Key:
# Conditions in all cases: stereoisomer not certain
# OR51I2 (Homo sapiens) = biological target: T1, OR51I2 (Homo sapiens) (UniProt Q9H344)
# T1 sequence (whole entry): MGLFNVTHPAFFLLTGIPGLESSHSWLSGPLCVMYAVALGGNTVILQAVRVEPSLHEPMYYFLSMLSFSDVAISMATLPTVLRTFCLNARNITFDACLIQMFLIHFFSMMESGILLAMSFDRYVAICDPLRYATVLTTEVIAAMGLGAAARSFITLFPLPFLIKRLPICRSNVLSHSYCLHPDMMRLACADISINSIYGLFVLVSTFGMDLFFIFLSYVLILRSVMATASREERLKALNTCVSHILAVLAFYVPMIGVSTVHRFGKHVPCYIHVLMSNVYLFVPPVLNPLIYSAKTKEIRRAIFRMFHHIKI
# Method in brief: (§1)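 Transient luciferase assays in mammalian cell lines were common, though methods varied by source. The values come from published papers and their supplementary material, with extra details from the original authors when needed. Responsive refers to a measured signal the original authors judged statistically different from baseline, and non-responsive (inactive) to the remainder.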
# OR51L1 (Homo sapiens) = biological target: T2, OR51L1 (Homo sapiens) (UniProt Q8NGJ5)
# T2 sequence (whole entry): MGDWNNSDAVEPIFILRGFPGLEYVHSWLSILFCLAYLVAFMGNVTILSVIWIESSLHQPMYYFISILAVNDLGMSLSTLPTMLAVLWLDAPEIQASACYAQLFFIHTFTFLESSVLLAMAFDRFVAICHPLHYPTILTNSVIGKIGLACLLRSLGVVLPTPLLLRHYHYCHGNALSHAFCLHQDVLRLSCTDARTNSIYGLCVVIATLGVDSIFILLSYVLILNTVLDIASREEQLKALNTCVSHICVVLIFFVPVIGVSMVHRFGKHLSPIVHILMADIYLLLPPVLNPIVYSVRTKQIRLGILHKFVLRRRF
# Method in brief: as §1
# OR51S1 (Homo sapiens) = biological target: T3, OR51S1 (Homo sapiens) (UniProt Q8NGJ8)
# T3 sequence (whole entry): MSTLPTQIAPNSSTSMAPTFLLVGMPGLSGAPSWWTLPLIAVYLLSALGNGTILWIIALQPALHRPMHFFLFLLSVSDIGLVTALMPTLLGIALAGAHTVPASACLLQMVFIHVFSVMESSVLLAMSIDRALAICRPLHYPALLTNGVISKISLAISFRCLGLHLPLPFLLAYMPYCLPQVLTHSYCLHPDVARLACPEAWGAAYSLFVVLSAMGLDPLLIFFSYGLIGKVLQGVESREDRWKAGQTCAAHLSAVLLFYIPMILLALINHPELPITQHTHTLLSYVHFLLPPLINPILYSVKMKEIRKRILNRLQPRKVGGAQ
# Method in brief: as §1
# OR52A4P (Homo sapiens) = biological target: T4, OR52A4P (Homo sapiens) (UniProt A6NMU1)
# T4 sequence (whole entry): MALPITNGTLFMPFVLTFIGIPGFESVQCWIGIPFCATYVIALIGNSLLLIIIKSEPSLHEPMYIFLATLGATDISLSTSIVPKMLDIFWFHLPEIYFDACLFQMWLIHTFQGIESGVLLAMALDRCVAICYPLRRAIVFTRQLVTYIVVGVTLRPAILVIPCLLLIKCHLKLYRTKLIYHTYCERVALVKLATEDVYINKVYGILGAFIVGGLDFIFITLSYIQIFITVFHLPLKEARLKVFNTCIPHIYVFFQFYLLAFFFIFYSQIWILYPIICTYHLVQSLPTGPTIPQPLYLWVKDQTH
# Method in brief: as §1
# OR52A5 (Homo sapiens) = biological target: T5, OR52A5 (Homo sapiens) (UniProt Q9H2C5)
# T5 sequence (whole entry): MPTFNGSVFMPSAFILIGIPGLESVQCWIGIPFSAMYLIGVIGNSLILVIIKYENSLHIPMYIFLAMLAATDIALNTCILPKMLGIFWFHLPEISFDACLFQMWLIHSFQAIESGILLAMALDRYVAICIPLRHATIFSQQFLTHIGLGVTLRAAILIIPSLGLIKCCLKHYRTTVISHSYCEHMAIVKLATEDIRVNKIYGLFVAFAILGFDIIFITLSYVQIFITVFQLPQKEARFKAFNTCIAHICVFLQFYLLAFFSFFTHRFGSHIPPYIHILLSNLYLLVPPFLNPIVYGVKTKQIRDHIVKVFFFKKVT
# Method in brief: as §1
# OR52B4 (Homo sapiens) = biological target: T6, OR52B4 (Homo sapiens) (UniProt Q8NGK2)
# T6 sequence (whole entry): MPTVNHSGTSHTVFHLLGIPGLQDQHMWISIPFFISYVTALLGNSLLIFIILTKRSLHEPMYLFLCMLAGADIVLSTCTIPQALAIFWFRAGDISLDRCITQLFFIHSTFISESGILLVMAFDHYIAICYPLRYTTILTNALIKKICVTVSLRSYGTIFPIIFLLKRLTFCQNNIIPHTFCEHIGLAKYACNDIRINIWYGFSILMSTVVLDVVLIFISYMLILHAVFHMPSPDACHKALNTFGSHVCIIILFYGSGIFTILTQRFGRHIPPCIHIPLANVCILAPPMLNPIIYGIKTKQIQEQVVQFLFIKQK
# Method in brief: as §1
# OR52D1 (Homo sapiens) = biological target: T7, OR52D1 (Homo sapiens) (UniProt Q9H346)
# T7 sequence (whole entry): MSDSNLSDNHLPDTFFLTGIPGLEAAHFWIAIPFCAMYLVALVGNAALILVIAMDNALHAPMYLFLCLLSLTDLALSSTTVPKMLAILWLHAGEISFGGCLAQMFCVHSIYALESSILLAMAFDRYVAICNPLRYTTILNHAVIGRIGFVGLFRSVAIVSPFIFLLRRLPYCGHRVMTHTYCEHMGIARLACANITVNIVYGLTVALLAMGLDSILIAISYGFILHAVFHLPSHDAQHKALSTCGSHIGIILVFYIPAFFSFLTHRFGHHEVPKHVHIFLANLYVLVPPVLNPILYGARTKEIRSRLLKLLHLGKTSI
# Method in brief: as §1
# OR52E6 (Homo sapiens) = OR52E6 (Homo sapiens) (UniProt Q96RD3)
# Method in brief: as §1
# OR52H1 (Homo sapiens) = biological target: T8, OR52H1 (Homo sapiens) (UniProt Q8NGJ2)
# T8 sequence (whole entry): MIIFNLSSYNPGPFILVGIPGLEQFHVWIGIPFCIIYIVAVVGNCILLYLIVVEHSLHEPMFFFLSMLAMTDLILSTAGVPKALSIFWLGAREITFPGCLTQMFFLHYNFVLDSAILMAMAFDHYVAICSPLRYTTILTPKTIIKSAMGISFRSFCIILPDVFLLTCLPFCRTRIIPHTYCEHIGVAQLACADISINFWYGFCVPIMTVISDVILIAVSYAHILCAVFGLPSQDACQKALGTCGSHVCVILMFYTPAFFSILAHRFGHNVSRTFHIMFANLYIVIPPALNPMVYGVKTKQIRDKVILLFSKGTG
# Method in brief: as §1
# OR52K1 (Homo sapiens) = biological target: T9, OR52K1 (Homo sapiens) (UniProt Q8NGK4)
# T9 sequence (whole entry): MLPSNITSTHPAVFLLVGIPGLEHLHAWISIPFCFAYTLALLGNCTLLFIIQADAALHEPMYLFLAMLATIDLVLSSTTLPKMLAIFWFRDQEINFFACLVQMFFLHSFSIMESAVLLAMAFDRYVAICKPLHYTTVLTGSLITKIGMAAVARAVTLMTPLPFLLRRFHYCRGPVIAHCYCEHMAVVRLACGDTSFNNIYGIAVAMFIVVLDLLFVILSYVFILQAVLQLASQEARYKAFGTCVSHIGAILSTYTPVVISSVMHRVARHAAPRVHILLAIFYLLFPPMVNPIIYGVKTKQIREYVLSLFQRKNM
# Method in brief: as §1
# 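Also: active if original authors judged signal statistically different from baseline.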
SMILES,odorant receptor agonist call (OR51I2 (Homo sapiens)),odorant receptor agonist call (OR51L1 (Homo sapiens)),odorant receptor agonist call (OR51S1 (Homo sapiens)),odorant receptor agonist call (OR52A4P (Homo sapiens)),odorant receptor agonist call (OR52A5 (Homo sapiens)),odorant receptor agonist call (OR52B4 (Homo sapiens)),odorant receptor agonist call (OR52D1 (Homo sapiens)),odorant receptor agonist call (OR52E6 (Homo sapiens)),odorant receptor agonist call (OR52H1 (Homo sapiens)),odorant receptor agonist call (OR52K1 (Homo sapiens))
CCCCOC(C)=O,inactive,inactive,active,inactive,inactive,inactive,inactive,inactive,inactive,inactive
CCOc1cc(C=O)ccc1O,,,,,,,inactive,,,
CCC(C)=O,inactive,inactive,inactive,inactive,inactive,inactive,inactive,inactive,inactive,inactive
CS,inactive,active,inactive,inactive,inactive,inactive,inactive,inactive,inactive,inactive
